# Measured values from paper PMC8215294.
# Substitutions are numbered along the chain they refer to. No constants are given. Whether binding was seen depends on the method and setting.
# B1: TOP2 C^405A (enzyme, UniProt Q949P2 1-701)
# chain: MASEDTLSSNPLLQNFDFPPFDSVDAHHVRPGIRALLQQLEAELEQLEKAVEPSWPKLVEPLEKIIDRLSVVWGMINHLKAVKDTPELRAAIEEVQPEKVKFQLRLGQSKPIYNAFKAIRESPDWNSLSEARQRLVEAQIKEAVLSGIALEDDKREEFNKIEQELEKLSHKFSENVLDATKKFEKLITDKKEIEGLPPSALGLFAQAAVSKGHETATADTGPWLITLDAPSYLPVMQHAKNRALREEVYRAYLSRASSGDLDNTAIIDQILKLRLEKAKLLGYRNYAEVSMATKMATVEKADELLEKLRSASWDPAVQDIEDLKSFAKNQGAAEADSLTHWDITFWSERLRESKYDINEEELRPYFSLPKVMDALFGLAKTLFGIDVVPADGVAPVWNSDVRFYAVKDSSGNPTAYFYFDPYSRPSEKRDGAWMDEVFSRSRVMAQKGSSVRLPVAQMVCNQTPPVGDKPSLMTFREVETVFHEFGHALQHMLTKEDEGLVAGIRNIEWDAVELPSQFMENWCYHRDTLMSIAKHYQTGETLPENVYKKLLAARTFRAGSLSLRQLKFATVDLELHTKYMPGGAETIYEVDQRVSIKTQVIPPLPEDRFLCSFSHIFAGGYAAGYYSYKWAEVLSADAFSAFEDAGLDDIKAVKETGQRFRNTILALGGGKAPLKVFVEFRGREPSPEPLLRHNGLLAASA
# B2: TOP2 C^460A (enzyme, UniProt Q949P2 1-701)
# chain: B1 chain with A405C, C460A
# B3: TOP2 C^611A (enzyme, UniProt Q949P2 1-701)
# chain: B1 chain with A405C, C611A
# B4: TOP2 C^523A (enzyme, UniProt Q949P2 1-701)
# chain: B1 chain with A405C, C523A
# Assays:
# Experiment in all cases: SEC; purified His-tagged TOPs treated 30 min at RT with DTTred, DTTox, GSH or GSSG, purified again and dialysed; XBridge BEH200A SEC column, 50 mM sodium phosphate, 150 mM NaCl, 0.02% NaN3, pH 7.0; both purified
# [1] = biological target: TOP2 C^405A (A. thaliana) (UniProt Q949P2)
# [2] = biological target: TOP2 C^460A (A. thaliana) (UniProt Q949P2)
# [3] = biological target: TOP2 C^611A (A. thaliana) (UniProt Q949P2)
# [4] = biological target: TOP2 C^523A (A. thaliana) (UniProt Q949P2)
binder,measurement,setting,value
B1,binding,[1],no binding
B2,binding,[2],no binding
B3,binding,[3],no binding
B4,binding,[4],no binding
